Holding throughout (test): affinity purification with mass spectrometry
Experiment [1] concerns the target 3xFlag-tagged SARS-CoV-2 non-structural protein nsp10 (SARS-CoV-2) (UniProt P0DTD1).
In experiment [2] the target is 3xFlag-tagged SARS-CoV-2 non-structural protein nsp9 (SARS-CoV-2) (UniProt P0DTD1).
For experiment [3], the target named is 3xFlag-tagged SARS-CoV-2 accessory protein ORF6 (SARS-CoV-2) (UniProt P0DTC6).

By UniProt entry, the sequences of proteins in these tests, tags left out.
UniProt P0DTC6, whole entry: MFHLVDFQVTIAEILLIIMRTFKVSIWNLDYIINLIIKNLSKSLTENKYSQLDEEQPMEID

No constants are given. Whether binding was seen depends on the method and setting. In cells and extracts the contact can be indirect. A yes stands for co-enrichment or nearness to the bait. Other partners may have been found.

For C1QBP (from UniProt Q07021 74-282), the binding result in experiment [1] and in experiment [2] was “binds” in each case.

B1: RAE1 (protein, UniProt P78406 1-368)
chain: MSLFGTTSGFGTSGTSMFGSATTDNHNPMKDIEVTSSPDDSIGCLSFSPPTLPGNFLIAGSWANDVRCWEVQDSGQTIPKAQQMHTGPVLDVCWSDDGSKVFTASCDKTAKMWDLSSNQAIQIAQHDAPVKTIHWIKAPNYSCVMTGSWDKTLKFWDTRSSNPMMVLQLPERCYCADVIYPMAVVATAERGLIVYQLENQPSEFRRIESPLKHQHRCVAIFKDKQNKPTGFALGSIEGRVAIHYINPPNPAKDNFTFKCHRSNGTNTSAPQDIYAVNGIAFHPVHGTLATVGSDGRFSFWDKDARTKLKTSEQLDQPISACCFNHNGNIFAYASSYDWSKGHEFYNPQKKNYIFLRNAAEELKPRNKK
For the molecule B1, in experiment [3], the binding entry is recorded as “binds”.

For the origin of these results see publication doi:10.1101/2020.03.31.019216.
